{"source": "paper PMC7241713", "binders": {"B1": {"name": "small heat shock protein 26 (sHSP26) (protein)", "chain": "MSLSTLLSLVDELQEPRSPIYELGLGLHPHSRYVLPLGTQQRRSINGCPCASPICPSSPAGQVLALRREMANRNDIHWPATAHVGKDGFQVCMDVAQFKPSELNVKVVDDSILVEGKHEERQDDHGHIMRHFVRRYKVPDGYKAEQVVSQLSSDGVLTVSIPKPQAVEDKSKERIIQIQQVGPAHLNVKANESEVKGKENGAPNGKDK"}, "B2": {"name": "small heat shock protein 23 (sHSP23) (protein, UniProt P02516 1-186)", "chain": "MANIPLLLSLADDLGRMSMVPFYEPYYCQRQRNPYLALVGPMEQQLRQLEKQVGASSGSSGAVSKIGKDGFQVCMDVSHFKPSELVVKVQDNSVLVEGNHEEREDDHGFITRHFVRRYALPPGYEADKVASTLSSDGVLTIKVPKPPAIEDKGNERIVQIQQVGPAHLNVKENPKEAVEQDNGNDK"}}, "key": {"[1]": {"target": "T1, small heat shock protein 23 (sHSP23) (Drosophila melanogaster (endogenous in adult fly heads)) (UniProt P02516)", "T1 sequence": "B2 chain", "assay": "co-IP; adult fly heads (5-10) lysed in NaCl 150 mM, 0.1% Tween-20, TBS pH 7.5; Protein A/G agarose beads loaded overnight at 4°C with anti-Hsp23 or anti-Hsp26 antibody or control IgG, 1 h at 4°C with the supernatant; western blot with anti-Hsp23 and anti-Hsp26; control flies and pkm RNAi flies (interaction not modified by pkm knockdown)"}, "[2]": {"target": "T2, small heat shock protein 26 (sHSP26) (Drosophila melanogaster (endogenous in adult fly heads))", "T2 sequence": "B1 chain", "assay": "co-IP; adult fly heads (5-10) lysed in NaCl 150 mM, 0.1% Tween-20, TBS pH 7.5; Protein A/G agarose beads loaded overnight at 4°C with anti-Hsp23 or anti-Hsp26 antibody or control IgG, 1 h at 4°C with the supernatant; western blot with anti-Hsp23 and anti-Hsp26; control flies and pkm RNAi flies (interaction not modified by pkm knockdown)"}}, "note": "Results are given in words; binding and its absence hold for the method and conditions named. In cells and extracts the contact can be indirect. Some entries that bind do so weakly or less than the wild type.", "data": [{"binder": "B1", "values": [{"measurement": "binding", "setting": "[1]", "value": "binds"}]}, {"binder": "B2", "values": [{"measurement": "binding", "setting": "[2]", "value": "binds"}]}]}
